# PubChem BioAssay AID1224830 – NIAID | 2016
# Screen: 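Host factors that control LPS-induced TNF expression in human macrophages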 (primary screen)
# Cells: human THP-1 monocytic leukaemia cells, TNF dual-luciferase reporter clone, PMA-differentiated to macrophage-like cells
# Reagents: siRNA pool against human genes, 50 nM
# Duration: LPS for 4 h, given about 3 days after siRNA transfection
# Conditions: bacterial LPS (TLR4 ligand), 10 ng/ml
# Measurement: 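Ratio of firefly to renilla light, scaled to the plate median and expressed as a robust z-score per replicate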
# Reading the numbers: TNF reporter robust z-score: higher = stronger TNF reporter response to LPS
# Call rule: 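a well is active when its z-score exceeds 2.8 or falls below -1.5; control wells carry no call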
# Shown is one part, drawn at random, of about 18,000 reagents. Of all reagents, about 2,900 (16%) were called active. 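Calls are made per well; low scores hint the gene aids the LPS response, high scores that it dampens it.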 Repeated entries: four replicate wells of each siRNA pool. Reagent sequences are not shown.
Target gene,TNF reporter robust z-score,call
IHH,0.61,inactive
IHH,0.77,inactive
IHH,0.13,inactive
IHH,0.57,inactive
FBXO41,0.35,inactive
FBXO41,6.15,active
FBXO41,0.73,inactive
FBXO41,4.47,active
CRELD1,0.44,inactive
CRELD1,-0.28,inactive
CRELD1,-0.71,inactive
CRELD1,-0.09,inactive
SLC35A2,-0.43,inactive
SLC35A2,0.7,inactive
SLC35A2,-0.68,inactive
SLC35A2,1.14,inactive
GIGYF1,0.89,inactive
GIGYF1,0.75,inactive
GIGYF1,0.9,inactive
GIGYF1,1.26,inactive
TM2D1,-0.59,inactive
TM2D1,-0.73,inactive
TM2D1,-1.05,inactive
TM2D1,-0.35,inactive
IMP3,0.13,inactive
IMP3,0.34,inactive
IMP3,-0.71,inactive
IMP3,0.72,inactive
GOPC,3.64,active
GOPC,0.01,inactive
GOPC,-0.79,inactive
GOPC,-0.31,inactive
CSMD3,-0.01,inactive
CSMD3,-0.09,inactive
CSMD3,0.28,inactive
CSMD3,0.17,inactive
NEXMIF,-1.41,inactive
NEXMIF,-1.66,active
NEXMIF,-1.69,active
NEXMIF,-1.39,inactive
OR51I1,-1.42,inactive
OR51I1,-1.44,inactive
OR51I1,-1.29,inactive
OR51I1,-0.99,inactive
OR5M11,0.46,inactive
OR5M11,0,inactive
OR5M11,0.03,inactive
OR5M11,-0.05,inactive
OR52N4,-1.77,active
OR52N4,-1.43,inactive
OR52N4,-0.75,inactive
OR52N4,-0.28,inactive
SPMIP4,-0.43,inactive
SPMIP4,-0.42,inactive
SPMIP4,-0.77,inactive
SPMIP4,0,inactive
CNBP,-0.95,inactive
CNBP,-0.64,inactive
CNBP,-0.97,inactive
CNBP,-0.37,inactive
NISCH,-0.3,inactive
NISCH,0.26,inactive
NISCH,-0.33,inactive
NISCH,0.14,inactive
MCM3,-0.61,inactive
MCM3,-0.36,inactive
MCM3,-0.59,inactive
MCM3,-0.87,inactive
IL22RA2,1.82,inactive
IL22RA2,0.59,inactive
IL22RA2,0.82,inactive
IL22RA2,-0.14,inactive
ZNF511,1.51,inactive
ZNF511,2.48,inactive
ZNF511,1.56,inactive
ZNF511,0.39,inactive
CYTH3,0.09,inactive
CYTH3,-0.2,inactive
CYTH3,0.9,inactive
CYTH3,0.02,inactive
FAM209B,-0.09,inactive
FAM209B,0.49,inactive
FAM209B,-0.42,inactive
FAM209B,-0.27,inactive
XAGE5,0.5,inactive
XAGE5,-0.11,inactive
XAGE5,-0.51,inactive
XAGE5,-0.84,inactive
ISG15,-0.71,inactive
ISG15,-0.8,inactive
ISG15,-0.94,inactive
ISG15,-0.95,inactive
STAT6,1.19,inactive
STAT6,1.14,inactive
STAT6,1.06,inactive
STAT6,0.58,inactive
ARIH1,0.87,inactive
ARIH1,0.96,inactive
ARIH1,-0.1,inactive
ARIH1,-0.4,inactive
RAB18,-0.87,inactive
RAB18,0.21,inactive
RAB18,-0.77,inactive
RAB18,0.72,inactive
ARHGAP15,-1.83,active
ARHGAP15,-1.52,active
ARHGAP15,-1.38,inactive
ARHGAP15,-1.27,inactive
OR1G1,-1.4,inactive
OR1G1,-0.57,inactive
OR1G1,-1.26,inactive
OR1G1,-1.5,inactive

Records listed so far whose target name begins with G or g:
Target gene,TNF reporter robust z-score,call
GIGYF1,0.89,inactive
GIGYF1,0.75,inactive
GIGYF1,0.9,inactive
GIGYF1,1.26,inactive
GOPC,3.64,active
GOPC,0.01,inactive
GOPC,-0.79,inactive
GOPC,-0.31,inactive
